The text below walks through data of patent US20200032346A1.

The chains behind the UniProt entries cited, without tags or fusion partners. Where a name states a change or a piece, a line headed by the entry shows the natural chain unless it says otherwise.
UniProt Q16706: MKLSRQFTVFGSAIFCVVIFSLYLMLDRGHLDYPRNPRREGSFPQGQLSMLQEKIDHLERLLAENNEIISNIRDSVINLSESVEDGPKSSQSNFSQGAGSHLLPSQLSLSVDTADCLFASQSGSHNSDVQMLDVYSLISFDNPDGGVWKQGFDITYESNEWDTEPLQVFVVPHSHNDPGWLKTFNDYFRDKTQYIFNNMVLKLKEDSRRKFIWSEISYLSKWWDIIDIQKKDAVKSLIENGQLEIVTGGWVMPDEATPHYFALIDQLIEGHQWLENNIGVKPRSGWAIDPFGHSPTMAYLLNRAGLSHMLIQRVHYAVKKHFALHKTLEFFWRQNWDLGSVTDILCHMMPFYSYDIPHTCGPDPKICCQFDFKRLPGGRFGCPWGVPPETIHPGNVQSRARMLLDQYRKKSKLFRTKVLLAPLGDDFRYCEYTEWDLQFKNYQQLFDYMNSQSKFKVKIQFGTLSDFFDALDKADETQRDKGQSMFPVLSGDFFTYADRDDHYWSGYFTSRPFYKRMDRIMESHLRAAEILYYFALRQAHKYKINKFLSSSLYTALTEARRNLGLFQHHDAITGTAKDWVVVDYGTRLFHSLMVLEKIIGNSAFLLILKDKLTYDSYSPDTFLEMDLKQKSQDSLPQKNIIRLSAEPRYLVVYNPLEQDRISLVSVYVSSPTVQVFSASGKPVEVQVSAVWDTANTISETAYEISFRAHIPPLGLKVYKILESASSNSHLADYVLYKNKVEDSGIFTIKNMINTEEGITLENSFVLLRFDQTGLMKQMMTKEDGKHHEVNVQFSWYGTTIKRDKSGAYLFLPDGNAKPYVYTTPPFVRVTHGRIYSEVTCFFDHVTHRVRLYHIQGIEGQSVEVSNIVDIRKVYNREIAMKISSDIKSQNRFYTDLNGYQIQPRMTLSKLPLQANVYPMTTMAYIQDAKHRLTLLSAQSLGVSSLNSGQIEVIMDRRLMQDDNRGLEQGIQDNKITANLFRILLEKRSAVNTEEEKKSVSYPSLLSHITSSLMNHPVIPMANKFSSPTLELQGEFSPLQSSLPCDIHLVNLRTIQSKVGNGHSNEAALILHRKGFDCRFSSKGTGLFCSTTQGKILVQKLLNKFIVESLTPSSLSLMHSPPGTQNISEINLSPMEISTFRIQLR

These are yes or no findings as the source states them, for the method shown. In cells and extracts the contact can be indirect. Some results given as binding are weak or reduced against the parent protein; the word gives no strength.

The assay concerns the target Epidermal growth factor receptor (EGFR) (UniProt P00533). As to the kind of experiment: co-immunoprecipitation, Western blot.

As for “MAN2A1-FER-FLAG (from UniProt Q16706 1-703; P16591 572-822) (enzyme)”, the binding result was “binds”.
